Results are given in words; binding and its absence hold for the method and conditions named. In cells and extracts the contact can be indirect. Binding calls can cover weak binding; strength is not graded here.
Target: HA-RI332, C-terminally truncated form of ribophorin-I with an HA epitope
Assay: co-IP

binding: binds
B1: OS9 (protein, UniProt Q13438 26-667)
chain: GGVGSLNLEELSEMRYGIEILPLPVMGGQSQSSDVVIVSSKYKQRYECRLPAGAIHFQREREEETPAYQGPGIPELLSPMRDAPCLLKTKDWWTYEFCYGRHIQQYHMEDSEIKGEVLYLGYYQSAFDWDDETAKASKQHRLKRYHSQTYGNGSKCDLNGRPREAEVRFLCDEGAGISGDYIDRVDEPLSCSYVLTIRTPRLCPHPLLRPPPSAAPQAILCHPSLQPEEYMAYVQRQADSKQYGDKIIEELQDLGPQVWSETKSGVAPQKMAGASPTKDDSKDSDFWKMLNEPEDQAPGGEEVPAEEQDPSPEAADSASGAPNDFQNNVQVKVIRSPADLIRFIEELKGGTKKGKPNIGQEQPVDDAAEVPQREPEKERGDPERQREMEEEEDEDEDEDEDEDERQLLGEFEKELEGILLPSDRDRLRSEVKAGMERELENIIQETEKELDPDGLKKESERDRAMLALTSTLNKLIKRLEEKQSPELVKKHKKKRVVPKKPPPSPQPTEEDPEHRVRVRVTKLRLGGPNQDLTVLEMKRENPQLKQIEGLVKELLEREGLTAAGKIEIKIVRPWAEGTEEGARWLTDEDTRNLKEIFFNILVPGAEEAQKERQRQKELESNYRRVWGSPGGEGTGDLDEFDF
